Laboratory results taken from article PMC10782585.
Results are given in words; binding and its absence hold for the method and conditions named. In cells and extracts the contact can be indirect. Some entries that bind do so weakly or less than the wild type. For part of these data: Where a sequence is shown, tags or fusion partners need not be part of it.

By UniProt entry, the sequences of proteins in these tests, tags left out.
UniProt Q00987: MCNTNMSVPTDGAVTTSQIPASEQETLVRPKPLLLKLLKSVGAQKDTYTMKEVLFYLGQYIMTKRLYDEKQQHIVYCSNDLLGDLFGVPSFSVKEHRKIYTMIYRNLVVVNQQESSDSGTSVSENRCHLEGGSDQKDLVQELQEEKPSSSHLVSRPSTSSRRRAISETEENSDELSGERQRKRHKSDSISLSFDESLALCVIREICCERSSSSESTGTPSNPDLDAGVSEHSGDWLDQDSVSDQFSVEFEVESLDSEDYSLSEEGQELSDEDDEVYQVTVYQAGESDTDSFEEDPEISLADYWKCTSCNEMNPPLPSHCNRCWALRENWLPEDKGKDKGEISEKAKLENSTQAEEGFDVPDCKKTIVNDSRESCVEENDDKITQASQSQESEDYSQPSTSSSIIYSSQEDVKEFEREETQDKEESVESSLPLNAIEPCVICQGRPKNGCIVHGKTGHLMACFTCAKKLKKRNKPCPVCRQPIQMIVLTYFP

What was measured:
[1] = target: T1, Flag-tagged AGPS Y451A mutant (UniProt O00116); experiment: co-IP; Flag-tagged AGPS (wild type or mutant) and Myc-tagged MDM2 ectopically expressed, DU145; lysate shaken overnight at 4 °C with anti-Flag antibody and protein A + G agarose, blot; cells treated with MG132 (20 μM, 8 h); also with λpp (1U/ml, 2 h) or after NTRK1 knockdown
T1 sequence: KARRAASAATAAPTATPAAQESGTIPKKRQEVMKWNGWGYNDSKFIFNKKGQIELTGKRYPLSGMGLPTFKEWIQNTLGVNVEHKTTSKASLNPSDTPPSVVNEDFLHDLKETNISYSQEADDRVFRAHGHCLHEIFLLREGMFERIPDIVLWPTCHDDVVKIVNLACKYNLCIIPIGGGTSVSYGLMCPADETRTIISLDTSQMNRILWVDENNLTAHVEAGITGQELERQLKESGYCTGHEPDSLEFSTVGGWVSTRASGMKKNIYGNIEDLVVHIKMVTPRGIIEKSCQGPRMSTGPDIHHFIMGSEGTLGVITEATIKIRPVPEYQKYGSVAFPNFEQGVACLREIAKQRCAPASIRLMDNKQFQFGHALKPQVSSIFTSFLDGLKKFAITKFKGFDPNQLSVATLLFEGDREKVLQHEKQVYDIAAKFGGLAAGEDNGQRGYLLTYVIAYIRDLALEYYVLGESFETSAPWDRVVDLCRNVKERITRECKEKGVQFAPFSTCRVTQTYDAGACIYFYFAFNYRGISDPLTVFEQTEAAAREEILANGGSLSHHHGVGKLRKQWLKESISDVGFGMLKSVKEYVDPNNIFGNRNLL

[2] = target: Flag-tagged wild-type AGPS (alkylglycerone phosphate synthase) (UniProt O00116); experiment: as above
[3] = target: endogenous AGPS (human (endogenous in prostate cancer cells, line not stated)) (UniProt O00116); experiment: co-IP; endogenous AGPS and MDM2; cell line and precipitating antibody not told

Substance | binding [1] | binding [2] | binding [3]
Myc-tagged MDM2 (mouse double minute 2) (from UniProt Q00987 1-491) (enzyme) | binds | binds | –
endogenous MDM2 (from UniProt Q00987 1-491) (enzyme) | – | – | binds
